The other results are listed elsewhere or left out.
Compound: CC1Cc2ccccc2N1C(=O)C1CCCN(C1)C(=O)CCl (mixture of isomers) [TRIM25 ligand 11 (diastereomer mixture)]
Test: probe-labelled cysteine peptide fold change vs DMSO (competition) (log2 fold change); higher = less target engagement (more negative = stronger competition)
Details: THP-1, incubation time: 4 h
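Further: competitive chemoproteomic profiling in live THP-1 cells with an iodoacetamide desthiobiotin (IA-DTB) probe, comparing probe-labelled peptide intensities in compound-treated cells against DMSO-treated controls.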

The chains behind the UniProt entries cited, without tags or fusion partners. Where a name states a change or a piece, a line headed by the entry shows the natural chain unless it says otherwise.
UniProt Q10713: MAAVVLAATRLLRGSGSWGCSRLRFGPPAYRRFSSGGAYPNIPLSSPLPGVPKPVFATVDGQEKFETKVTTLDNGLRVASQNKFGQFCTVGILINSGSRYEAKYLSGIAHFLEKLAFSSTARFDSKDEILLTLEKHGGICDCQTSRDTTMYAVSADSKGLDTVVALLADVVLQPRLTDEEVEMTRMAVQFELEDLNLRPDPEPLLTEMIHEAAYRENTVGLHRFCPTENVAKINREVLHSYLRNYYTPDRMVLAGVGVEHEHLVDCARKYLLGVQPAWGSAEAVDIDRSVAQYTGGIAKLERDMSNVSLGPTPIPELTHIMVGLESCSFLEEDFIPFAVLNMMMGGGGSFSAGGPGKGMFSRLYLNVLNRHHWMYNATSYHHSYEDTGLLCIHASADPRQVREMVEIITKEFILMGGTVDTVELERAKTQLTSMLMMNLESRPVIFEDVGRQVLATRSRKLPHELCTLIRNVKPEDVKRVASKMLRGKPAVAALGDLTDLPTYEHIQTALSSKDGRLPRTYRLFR
UniProt O94903: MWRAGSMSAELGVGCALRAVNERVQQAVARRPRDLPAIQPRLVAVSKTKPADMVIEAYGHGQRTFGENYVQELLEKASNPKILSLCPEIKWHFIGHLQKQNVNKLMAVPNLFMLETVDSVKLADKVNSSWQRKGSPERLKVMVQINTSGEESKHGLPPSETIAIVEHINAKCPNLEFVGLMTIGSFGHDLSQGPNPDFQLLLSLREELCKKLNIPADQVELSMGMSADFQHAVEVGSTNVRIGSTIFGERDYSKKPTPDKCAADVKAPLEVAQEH
UniProt P29590: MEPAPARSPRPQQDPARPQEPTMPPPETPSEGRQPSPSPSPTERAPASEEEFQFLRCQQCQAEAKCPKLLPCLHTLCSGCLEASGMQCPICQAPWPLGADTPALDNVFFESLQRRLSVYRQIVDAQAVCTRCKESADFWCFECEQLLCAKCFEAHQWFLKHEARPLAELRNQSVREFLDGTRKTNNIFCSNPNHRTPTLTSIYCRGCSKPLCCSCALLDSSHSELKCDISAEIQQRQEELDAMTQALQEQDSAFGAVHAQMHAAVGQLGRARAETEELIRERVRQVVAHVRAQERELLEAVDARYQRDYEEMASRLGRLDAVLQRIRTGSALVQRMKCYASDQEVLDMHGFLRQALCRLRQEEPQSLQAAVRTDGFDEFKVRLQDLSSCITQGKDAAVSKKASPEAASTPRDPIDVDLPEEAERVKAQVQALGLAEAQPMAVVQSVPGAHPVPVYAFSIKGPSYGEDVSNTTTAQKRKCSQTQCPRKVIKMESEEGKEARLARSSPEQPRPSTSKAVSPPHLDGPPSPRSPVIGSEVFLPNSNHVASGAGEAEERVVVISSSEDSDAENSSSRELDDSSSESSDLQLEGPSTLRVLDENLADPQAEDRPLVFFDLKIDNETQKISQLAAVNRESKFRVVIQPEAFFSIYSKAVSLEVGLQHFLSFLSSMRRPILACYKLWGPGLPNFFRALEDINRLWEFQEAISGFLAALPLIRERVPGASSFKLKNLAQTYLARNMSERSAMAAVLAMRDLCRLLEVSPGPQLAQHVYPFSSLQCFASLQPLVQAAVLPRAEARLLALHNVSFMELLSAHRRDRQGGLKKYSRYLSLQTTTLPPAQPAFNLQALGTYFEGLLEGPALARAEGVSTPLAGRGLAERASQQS
UniProt O00329: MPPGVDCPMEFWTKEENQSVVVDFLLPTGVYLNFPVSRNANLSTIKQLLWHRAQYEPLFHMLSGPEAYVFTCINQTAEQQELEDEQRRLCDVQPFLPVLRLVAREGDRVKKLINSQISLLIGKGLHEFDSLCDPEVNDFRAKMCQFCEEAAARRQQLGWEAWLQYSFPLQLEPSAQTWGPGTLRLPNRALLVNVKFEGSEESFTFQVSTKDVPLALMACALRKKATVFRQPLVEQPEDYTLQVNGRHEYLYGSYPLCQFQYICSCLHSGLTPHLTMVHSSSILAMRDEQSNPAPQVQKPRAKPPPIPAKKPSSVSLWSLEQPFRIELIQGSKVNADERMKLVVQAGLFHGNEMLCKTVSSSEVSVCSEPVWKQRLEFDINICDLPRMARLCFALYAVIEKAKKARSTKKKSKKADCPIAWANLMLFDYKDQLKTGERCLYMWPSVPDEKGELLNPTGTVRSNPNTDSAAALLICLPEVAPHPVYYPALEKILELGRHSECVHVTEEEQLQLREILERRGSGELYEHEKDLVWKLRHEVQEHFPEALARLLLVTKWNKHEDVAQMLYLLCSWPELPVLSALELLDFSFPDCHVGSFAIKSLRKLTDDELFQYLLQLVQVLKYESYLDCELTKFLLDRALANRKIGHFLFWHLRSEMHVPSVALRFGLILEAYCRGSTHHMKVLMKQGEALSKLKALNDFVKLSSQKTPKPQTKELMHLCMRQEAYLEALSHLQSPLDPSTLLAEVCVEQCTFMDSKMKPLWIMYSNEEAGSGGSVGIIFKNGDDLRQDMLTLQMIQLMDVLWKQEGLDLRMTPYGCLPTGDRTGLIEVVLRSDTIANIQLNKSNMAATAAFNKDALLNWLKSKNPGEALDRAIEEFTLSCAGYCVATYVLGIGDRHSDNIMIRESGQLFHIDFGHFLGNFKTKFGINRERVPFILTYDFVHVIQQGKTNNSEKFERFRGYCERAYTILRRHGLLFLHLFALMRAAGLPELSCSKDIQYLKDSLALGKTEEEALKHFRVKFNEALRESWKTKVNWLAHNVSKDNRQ
UniProt Q9HB19: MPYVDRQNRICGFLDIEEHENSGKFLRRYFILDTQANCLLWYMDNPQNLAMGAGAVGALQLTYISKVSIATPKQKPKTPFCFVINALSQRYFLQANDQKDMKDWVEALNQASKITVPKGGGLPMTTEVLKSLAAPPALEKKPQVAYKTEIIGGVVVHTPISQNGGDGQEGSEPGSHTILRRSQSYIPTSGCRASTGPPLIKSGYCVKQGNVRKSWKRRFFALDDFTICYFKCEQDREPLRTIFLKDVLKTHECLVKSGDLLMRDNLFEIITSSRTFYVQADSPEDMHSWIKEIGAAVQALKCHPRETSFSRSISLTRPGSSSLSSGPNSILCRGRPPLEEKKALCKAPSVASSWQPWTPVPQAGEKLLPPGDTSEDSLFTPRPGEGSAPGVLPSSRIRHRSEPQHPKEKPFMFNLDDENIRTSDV
UniProt Q03405, whole entry, looked up: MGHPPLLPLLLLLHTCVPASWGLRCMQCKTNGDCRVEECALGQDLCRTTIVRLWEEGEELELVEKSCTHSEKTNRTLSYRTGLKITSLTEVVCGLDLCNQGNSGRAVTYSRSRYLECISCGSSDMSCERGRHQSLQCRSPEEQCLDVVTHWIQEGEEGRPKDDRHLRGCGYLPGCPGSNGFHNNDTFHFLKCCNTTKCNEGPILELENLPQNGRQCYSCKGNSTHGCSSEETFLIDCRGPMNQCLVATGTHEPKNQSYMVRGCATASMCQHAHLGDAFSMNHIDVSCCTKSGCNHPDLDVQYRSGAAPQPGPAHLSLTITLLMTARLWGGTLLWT
UniProt P48739: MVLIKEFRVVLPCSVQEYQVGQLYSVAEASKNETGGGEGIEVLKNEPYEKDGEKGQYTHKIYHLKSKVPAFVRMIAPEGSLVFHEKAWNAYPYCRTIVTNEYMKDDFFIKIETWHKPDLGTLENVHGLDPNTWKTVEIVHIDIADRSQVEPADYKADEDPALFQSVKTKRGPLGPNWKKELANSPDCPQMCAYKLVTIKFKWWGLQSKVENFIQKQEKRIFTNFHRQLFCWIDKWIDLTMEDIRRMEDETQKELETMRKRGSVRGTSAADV
UniProt Q8TD55: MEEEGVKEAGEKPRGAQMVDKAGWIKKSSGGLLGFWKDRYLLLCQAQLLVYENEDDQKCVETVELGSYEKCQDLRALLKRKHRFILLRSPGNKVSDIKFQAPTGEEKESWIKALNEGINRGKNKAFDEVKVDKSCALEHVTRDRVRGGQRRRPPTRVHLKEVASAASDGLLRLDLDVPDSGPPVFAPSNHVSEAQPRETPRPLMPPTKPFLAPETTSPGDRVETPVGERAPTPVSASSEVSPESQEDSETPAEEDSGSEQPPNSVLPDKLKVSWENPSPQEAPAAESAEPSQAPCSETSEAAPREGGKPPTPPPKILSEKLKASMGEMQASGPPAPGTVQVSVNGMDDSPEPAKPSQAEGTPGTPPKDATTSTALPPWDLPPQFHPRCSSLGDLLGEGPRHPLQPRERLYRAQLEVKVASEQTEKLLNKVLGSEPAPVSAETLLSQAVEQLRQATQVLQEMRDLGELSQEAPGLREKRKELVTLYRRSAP
UniProt Q8NCC3: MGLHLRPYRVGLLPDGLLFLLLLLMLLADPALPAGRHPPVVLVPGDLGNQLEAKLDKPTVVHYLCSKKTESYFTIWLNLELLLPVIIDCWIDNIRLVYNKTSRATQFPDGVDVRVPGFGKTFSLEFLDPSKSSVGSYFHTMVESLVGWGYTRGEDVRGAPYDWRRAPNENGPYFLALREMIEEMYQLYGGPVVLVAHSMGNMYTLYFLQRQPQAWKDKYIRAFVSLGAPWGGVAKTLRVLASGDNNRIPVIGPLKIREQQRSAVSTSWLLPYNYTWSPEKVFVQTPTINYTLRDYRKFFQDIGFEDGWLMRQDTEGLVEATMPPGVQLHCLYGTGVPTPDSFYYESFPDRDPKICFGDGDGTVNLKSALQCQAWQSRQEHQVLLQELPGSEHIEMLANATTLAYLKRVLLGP
UniProt O43660: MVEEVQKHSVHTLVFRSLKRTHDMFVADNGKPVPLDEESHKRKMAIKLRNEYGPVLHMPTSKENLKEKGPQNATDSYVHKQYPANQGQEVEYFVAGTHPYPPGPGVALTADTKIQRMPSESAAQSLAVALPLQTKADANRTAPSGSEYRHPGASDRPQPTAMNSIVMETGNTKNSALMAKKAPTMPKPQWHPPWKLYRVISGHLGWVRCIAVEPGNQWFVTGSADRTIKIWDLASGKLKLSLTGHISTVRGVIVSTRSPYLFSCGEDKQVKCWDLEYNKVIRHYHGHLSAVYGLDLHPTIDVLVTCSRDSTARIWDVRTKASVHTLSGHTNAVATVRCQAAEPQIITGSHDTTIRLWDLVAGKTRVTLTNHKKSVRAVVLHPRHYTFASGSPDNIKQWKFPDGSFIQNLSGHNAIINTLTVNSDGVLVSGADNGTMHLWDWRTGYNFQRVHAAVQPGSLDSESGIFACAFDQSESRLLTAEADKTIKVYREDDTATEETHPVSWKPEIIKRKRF
UniProt P16885: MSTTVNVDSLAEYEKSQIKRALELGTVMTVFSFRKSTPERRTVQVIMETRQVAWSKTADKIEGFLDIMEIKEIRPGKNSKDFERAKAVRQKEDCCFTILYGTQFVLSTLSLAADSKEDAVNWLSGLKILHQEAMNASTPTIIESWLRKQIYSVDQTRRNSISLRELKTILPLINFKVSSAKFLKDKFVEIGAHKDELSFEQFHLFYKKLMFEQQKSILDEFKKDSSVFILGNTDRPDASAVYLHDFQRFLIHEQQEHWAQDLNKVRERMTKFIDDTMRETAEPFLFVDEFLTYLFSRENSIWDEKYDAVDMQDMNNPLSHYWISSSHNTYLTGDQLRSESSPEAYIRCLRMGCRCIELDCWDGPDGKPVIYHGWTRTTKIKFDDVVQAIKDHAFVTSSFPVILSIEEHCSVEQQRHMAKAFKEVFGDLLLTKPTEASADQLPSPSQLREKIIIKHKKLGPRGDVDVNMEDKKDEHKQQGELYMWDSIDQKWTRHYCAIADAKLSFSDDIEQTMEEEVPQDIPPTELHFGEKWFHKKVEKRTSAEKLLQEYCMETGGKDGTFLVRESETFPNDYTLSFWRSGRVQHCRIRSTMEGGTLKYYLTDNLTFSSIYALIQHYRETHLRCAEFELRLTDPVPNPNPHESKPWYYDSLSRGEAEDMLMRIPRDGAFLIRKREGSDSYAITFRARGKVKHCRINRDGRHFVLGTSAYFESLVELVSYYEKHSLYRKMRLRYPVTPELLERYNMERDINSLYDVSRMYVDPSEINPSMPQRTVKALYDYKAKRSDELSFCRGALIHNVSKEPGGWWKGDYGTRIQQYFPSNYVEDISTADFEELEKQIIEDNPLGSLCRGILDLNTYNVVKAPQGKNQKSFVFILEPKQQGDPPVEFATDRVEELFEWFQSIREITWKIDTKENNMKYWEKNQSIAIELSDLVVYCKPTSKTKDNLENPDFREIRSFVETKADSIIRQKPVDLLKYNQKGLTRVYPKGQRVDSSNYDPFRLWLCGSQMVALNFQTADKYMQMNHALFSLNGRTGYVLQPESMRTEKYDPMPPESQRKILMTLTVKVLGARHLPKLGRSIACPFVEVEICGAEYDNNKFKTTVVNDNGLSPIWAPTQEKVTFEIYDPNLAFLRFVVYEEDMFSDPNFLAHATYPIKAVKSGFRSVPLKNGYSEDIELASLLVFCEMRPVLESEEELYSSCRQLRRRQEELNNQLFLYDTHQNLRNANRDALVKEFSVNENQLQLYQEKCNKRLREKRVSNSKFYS

Target | probe-labelled cysteine peptide fold change (10 µM) | probe-labelled cysteine peptide fold change (50 µM)
PMPCA_Q10713_88_FGQFCTVGILINSGSR (UniProt Q10713) | 0.116 | 0.267
PLPBP_O94903_15_AGSMSAELGVGCALR (UniProt O94903) | -0.0502 | -0.104
PML_P29590_189_TNNIFCSNPNHR (UniProt P29590) | -0.0305 | -0.159
PIK3CD_O00329_416_ADCPIAWANLMLFDYK (UniProt O00329) | 0.261 | -0.29
PIK3CD_O00329_132_GLHEFDSLCDPEVNDFR (UniProt O00329) | -0.033 | -0.0623
PLEKHA2_Q9HB19_253_THECLVK (UniProt Q9HB19) | -0.018 | 0.0246
PLAUR_Q03405_46_VEECALGQDLCR (UniProt Q03405) | -0.103 | -0.141
PITPNB_P48739_94_AWNAYPYCR (UniProt P48739) | 0.000331 | -0.0202
PLEKHO2_Q8TD55_135_SCALEHVTR (UniProt Q8TD55) | -0.101 | -0.194
PLCB2_Q00722_945_GAAQLAELGPPGVGGVGACK (UniProt Q00722) | 0.0221 | -0.239
PLA2G15_Q8NCC3_65_LDKPTVVHYLCSK (UniProt Q8NCC3) | 0.158 | 0.342
PML_P29590_143_ESADFWCFECEQLLCAK (UniProt P29590) | 0.0255 | 0.124
PLRG1_O43660_272_CWDLEYNK (UniProt O43660) | -0.0476 | 0.119
PLCG2_P16885_360_CIELDCWDGPDGKPVIYHGWTR (UniProt P16885) | 0.00239 | 0.163
PLCG2_P16885_355_CIELDCWDGPDGKPVIYHGWTR (UniProt P16885) | 0.0645 | 0.167

A portion taken from the entries so far, for reference:
Target | probe-labelled cysteine peptide fold change (10 µM) | probe-labelled cysteine peptide fold change (50 µM)
PLA2G15_Q8NCC3_65_LDKPTVVHYLCSK (UniProt Q8NCC3) | 0.158 | 0.342
PML_P29590_143_ESADFWCFECEQLLCAK (UniProt P29590) | 0.0255 | 0.124
PLRG1_O43660_272_CWDLEYNK (UniProt O43660) | -0.0476 | 0.119
PLCG2_P16885_360_CIELDCWDGPDGKPVIYHGWTR (UniProt P16885) | 0.00239 | 0.163

— the supplement of paper PMC12067093, “Discovery and optimisation of a covalent ligand for TRIM25 and its application to targeted protein ubiquitination” (Chemical Science, 2025)
